The list is a part of this screen's results and no random one: its compounds were picked by chemical class. Not every dose and run of a compound is shown. T/C gives the treated animals as a percentage of the vehicle group. Some entries give survivors of the animals treated and no T/C: the source files T/C as zero there, which appears to mark a toxic dose or a test without result, not a measured value. Some survivor counts are full or nearly so, which does not show that the dose was tolerated: the source hardly ever lists a survival T/C far under the control, and the zero likely stands for such cases as well. Survivors were counted at the toxicity check, usually on the fifth day, unless a day is given; later deaths do not show. Schedules are NCI's codes, read here as Q, the interval in days (D) or hours (H), X, the number of doses. Some doses were run more than once; their values stand side by side, smallest first. For survival time, the PubChem record calls one and a half times the control and up active, and a quarter to a half above the control has no call in these data; cut-offs in other NCI protocols can differ. Counts like (3×) stand for listed records that agree. Some schedules carry Z or #; the key to these is not given. Some T/C values carry the count of animals alive at the toxicity check (mostly the fifth day); where neither a count nor a note follows, no animal had died by that day. Some entries show no survivor count and are marked so; the dose need not have been tolerated.
Test system: L1210 leukemia ip in BDF1 mice, survival T/C
Test: NCI In Vivo Anticancer Drug Screen. Data for tumor model L1210 Leukemia (intraperitoneal) in B6D2F1 (BDF1) mice
Settings: T/C endpoint: mean survival time, higher T/C = longer survival
[1] = dose: 100.0 mg/kg/injection, schedule: Q01DX009 (ip), vehicle: saline
[2] = dose: 75.0 mg/kg/injection, schedule: Q01DX001 (ip), vehicle: saline
[3] = dose: 150.0 mg/kg/injection, schedule: Q01DX001 (ip), vehicle: saline
[4] = dose: 300.0 mg/kg/injection, schedule: Q01DX001 (ip), vehicle: saline
[5] = dose: 100.0 mg/kg/injection, schedule: Q04DX003 (ip), vehicle: saline
[6] = dose: 200.0 mg/kg/injection, schedule: Q04DX003 (ip), vehicle: saline
[7] = dose: 400.0 mg/kg/injection, schedule: Q04DX003 (ip), vehicle: saline
[8] = dose: 50.0 mg/kg/injection, schedule: Q04DX003 (ip), vehicle: Klucel (hydroxypropylcellulose) (HPC)
[9] = dose: 100.0 mg/kg/injection, schedule: Q04DX003 (ip), vehicle: Klucel (hydroxypropylcellulose) (HPC)
[10] = dose: 200.0 mg/kg/injection, schedule: Q04DX003 (ip), vehicle: Klucel (hydroxypropylcellulose) (HPC)

For O=C(/C=C/c1ccc([N+](=O)[O-])cc1[N+](=O)[O-])c1cccc([N+](=O)[O-])c1, the T/C (dose: 100.0 mg/kg/injection, schedule: Q04DX002 (ip), vehicle: Klucel (hydroxypropylcellulose) (HPC)) was 103 % of control, the T/C (dose: 200.0 mg/kg/injection, schedule: Q04DX002 (ip), vehicle: Klucel (hydroxypropylcellulose) (HPC)) was 103 % of control and the T/C (dose: 400.0 mg/kg/injection, schedule: Q04DX002 (ip), vehicle: Klucel (hydroxypropylcellulose) (HPC)) was 100 % of control.

Cc1cc(Cl)ccc1Nc1c([N+](=O)[O-])cc([N+](=O)[O-])cc1[N+](=O)[O-] was tested, and the T/C [1] was 94 % of control [survivor count not shown], the T/C (dose: 200.0 mg/kg/injection, schedule: Q01DX009 (ip), vehicle: saline) was 89 % of control [survivor count not shown] and the T/C (dose: 400.0 mg/kg/injection, schedule: Q01DX009 (ip), vehicle: saline) was 86 % of control [survivor count not shown].

With CN(CN(CN(C[n+]1ccccc1)[N+](=O)[O-])[N+](=O)[O-])[N+](=O)[O-] the T/C (dose: 100.0 mg/kg/injection, schedule: Q04DX002 (ip), vehicle: saline) was 105 % of control [survivor count not shown] and the T/C (dose: 200.0 mg/kg/injection, schedule: Q04DX002 (ip), vehicle: saline) was 102 % of control [survivor count not shown].

In the case of CC1CC[P+](c2ccccc2)(c2ccccc2)c2c1ccc1ccccc21.F[P-](F)(F)(F)(F)F (stereo not given), the T/C (dose: 3.13 mg/kg/injection, schedule: Q01DX009 (ip), vehicle: saline with Tween-80) is reported as 103 % of control, the T/C (dose: 6.25 mg/kg/injection, schedule: Q01DX009 (ip), vehicle: saline with Tween-80) is reported as 103 % of control and the T/C (dose: 12.5 mg/kg/injection, schedule: Q01DX009 (ip), vehicle: saline with Tween-80) is reported as 106 % of control (2×). The T/C (dose: 25.0 mg/kg/injection, schedule: Q01DX009 (ip), vehicle: saline with Tween-80) was 92 % of control, the survivor count (dose: 50.0 mg/kg/injection, schedule: Q01DX009 (ip), vehicle: saline with Tween-80) was 0 of 3 and 3 of 3 and the survivor count (dose: 100.0 mg/kg/injection, schedule: Q01DX009 (ip), vehicle: saline with Tween-80) was 0 of 3. The survivor count (dose: 200.0 mg/kg/injection, schedule: Q01DX009 (ip), vehicle: saline with Tween-80) was 0 of 3.

CC(C)(C)c1ccc(P(=O)(Cl)C(C)(C)C)cc1 (stereo not given) was tested, and the T/C [2] was 105 % of control, the T/C [3] was 96 % of control and the T/C [4] was 97 % of control.

In the case of OCCN(CCBr)c1ccccc1, the T/C [5] is reported as 103 % of control, the T/C [6] is reported as 97 % of control and the T/C [7] is reported as 95 % of control.

NC(=O)CCCc1ccc(N(CCCl)CCCl)cc1 was tested, and the T/C (dose: 1.0 mg/kg/injection, schedule: Q01DX009 (ip), vehicle: saline) was 113 % of control, the T/C (dose: 2.5 mg/kg/injection, schedule: Q01DX009 (ip), vehicle: saline) was 117 % of control and the T/C (dose: 5.0 mg/kg/injection, schedule: Q01DX009 (ip), vehicle: saline) was 123 % of control. For the same compound, the T/C (dose: 8.3 mg/kg/injection, schedule: Q01DX009 (ip), vehicle: saline) was 107 and 125 % of control, the T/C (dose: 12.5 mg/kg/injection, schedule: Q01DX009 (ip), vehicle: saline) was 114 % of control and the T/C (dose: 18.8 mg/kg/injection, schedule: Q01DX009 (ip), vehicle: saline) was 137 % of control [5 of 6 alive]. For the same compound, the T/C (dose: 28.2 mg/kg/injection, schedule: Q01DX009 (ip), vehicle: saline) was 88 % of control [5 of 6 alive], the T/C [2] was 126 % of control [5 of 6 alive] and the survivor count [3] was 1 of 6. For the same compound, the survivor count [4] was 0 of 6.

For CCOC(=O)CF, the T/C (dose: 10.0 mg/kg/injection, schedule: Q01DX001 (ip), vehicle: acetone) was 114 % of control [5 of 6 alive], the survivor count (dose: 20.0 mg/kg/injection, schedule: Q01DX001 (ip), vehicle: acetone) was 0 of 6 and the survivor count (dose: 40.0 mg/kg/injection, schedule: Q01DX001 (ip), vehicle: acetone) was 0 of 6. For the same compound, the survivor count [2] was 1 of 6, the survivor count [3] was 0 of 6 and the survivor count [4] was 0 of 6.

With NCCCNCCBr the T/C (dose: 100.0 mg/kg/injection, schedule: Q01DX001 (ip), vehicle: saline) was 111 % of control, the T/C (dose: 200.0 mg/kg/injection, schedule: Q01DX001 (ip), vehicle: saline) was 118 % of control and the T/C (dose: 400.0 mg/kg/injection, schedule: Q01DX001 (ip), vehicle: saline) was 116 % of control.

In the case of CN(CCCl)N=Nc1ccc([N+](=O)[O-])cc1C(N)=O, the T/C [8] is reported as 102 % of control, the T/C [9] is reported as 107 % of control and the T/C [10] is reported as 123 % of control.

With CP1(=S)SP(C)(=S)S1 (stereo not given) the T/C [5] was 102 % of control [survivor count not shown] and the T/C [6] was 100 % of control [survivor count not shown].

In the case of CCC[As](=O)(O)O, the T/C (dose: 25.0 mg/kg/injection, schedule: Q01DX009 (ip), vehicle: saline) is reported as 95 % of control, the survivor count (dose: 50.0 mg/kg/injection, schedule: Q01DX009 (ip), vehicle: saline) is reported as 3 of 6 and the survivor count [1] is reported as 0 of 6. For the same compound, the T/C [5] was 94 % of control [4 of 6 alive], the survivor count [6] was 2 of 6 and the survivor count [7] was 1 of 6.

With O=[N+]([O-])c1cccc(Oc2cc(Br)c([N+](=O)[O-])cc2[N+](=O)[O-])c1 the T/C (dose: 75.0 mg/kg/injection, schedule: Q01DX001 (ip), vehicle: acetone) was 96 % of control, the T/C (dose: 150.0 mg/kg/injection, schedule: Q01DX001 (ip), vehicle: acetone) was 100 % of control and the survivor count (dose: 300.0 mg/kg/injection, schedule: Q01DX001 (ip), vehicle: acetone) was 0 of 6.

In the case of CCN(CCCl)CC1OC(O)C(O)C1O (stereo not given), the T/C (dose: 3.0 mg/kg/injection, schedule: Q01DX Z (ip), vehicle: methylcellulose (MC)) is reported as 96 % of control, the T/C (dose: 3.6 mg/kg/injection, schedule: Q01DX Z (ip), vehicle: methylcellulose (MC)) is reported as 124 % of control and the T/C (dose: 5.3 mg/kg/injection, schedule: Q01DX Z (ip), vehicle: methylcellulose (MC)) is reported as 106 and 182 % of control. The T/C (dose: 8.0 mg/kg/injection, schedule: Q01DX Z (ip), vehicle: methylcellulose (MC)) was 98, 151, 165 % of control, the T/C (dose: 12.0 mg/kg/injection, schedule: Q01DX Z (ip), vehicle: methylcellulose (MC)) was 113, 158, 198 % of control [5 of 6 alive] and the T/C (dose: 18.0 mg/kg/injection, schedule: Q01DX Z (ip), vehicle: methylcellulose (MC)) was 180 % of control. For the same compound, the T/C (dose: 27.0 mg/kg/injection, schedule: Q01DX Z (ip), vehicle: methylcellulose (MC)) was 133 % of control.

With CCC1CC[P+](c2ccccc2)(c2ccccc2)c2ccccc21.F[P-](F)(F)(F)(F)F (stereo not given) the T/C [8] was 109 % of control, the T/C [9] was 115 % of control and the survivor count [10] was 5 of 6. For the same compound, the survivor count (dose: 400.0 mg/kg/injection, schedule: Q04DX003 (ip), vehicle: Klucel (hydroxypropylcellulose) (HPC)) was 0 of 6.

In the case of C1CCN(C2CC3CC2C2CSCC32)CC1 (stereo not given), the T/C (dose: 75.0 mg/kg/injection, schedule: Q01DX001 (ip), vehicle: other) is reported as 104 % of control [survivor count not shown], the T/C (dose: 150.0 mg/kg/injection, schedule: Q01DX001 (ip), vehicle: other) is reported as 98 % of control [survivor count not shown] and the T/C (dose: 300.0 mg/kg/injection, schedule: Q01DX001 (ip), vehicle: other) is reported as 100 % of control [survivor count not shown].

Cc1c([N+](=O)[O-])cc(C(=O)N=[N+]=[N-])cc1[N+](=O)[O-] was tested, and the T/C (dose: 25.0 mg/kg/injection, schedule: Q04DX003 (ip), vehicle: saline with Tween-80) was 106 % of control, the T/C (dose: 50.0 mg/kg/injection, schedule: Q04DX003 (ip), vehicle: saline with Tween-80) was 97 % of control and the T/C (dose: 100.0 mg/kg/injection, schedule: Q04DX003 (ip), vehicle: saline with Tween-80) was 98 % of control.

In the case of ClCCN(CCCl)/N=C/C=N/N(CCCl)CCCl, the T/C (dose: 15.0 mg/kg/injection, schedule: Q01DX Z (ip), vehicle: carboxymethylcellulose (CMC)) is reported as 93 % of control, the T/C (dose: 30.0 mg/kg/injection, schedule: Q01DX Z (ip), vehicle: carboxymethylcellulose (CMC)) is reported as 98 % of control and the T/C (dose: 60.0 mg/kg/injection, schedule: Q01DX Z (ip), vehicle: carboxymethylcellulose (CMC)) is reported as 115 % of control. The T/C (dose: 120.0 mg/kg/injection, schedule: Q01DX Z (ip), vehicle: carboxymethylcellulose (CMC)) was 120 % of control.
